Some entries of the source have several records that differ or are many. The other results are left out here. An entry can have further records. Values that stand side by side do not match, cause unknown; dose, time, organism, isomer or construct need not be as stated for each record.
Target: HMGCR (TM1-8)-GFP (Cricetulus griseus, UniProt P00347)
Assay: HMGCR (TM1-8)-GFP fluorescent assay (high-content imaging) in CHG cells
Details: 7.8 uM, 16 h, DMSO-treated cells = 100

The chains behind the UniProt entries cited, without tags or fusion partners. Residues count along the entry.
UniProt P00347, 1-346 limits assumed: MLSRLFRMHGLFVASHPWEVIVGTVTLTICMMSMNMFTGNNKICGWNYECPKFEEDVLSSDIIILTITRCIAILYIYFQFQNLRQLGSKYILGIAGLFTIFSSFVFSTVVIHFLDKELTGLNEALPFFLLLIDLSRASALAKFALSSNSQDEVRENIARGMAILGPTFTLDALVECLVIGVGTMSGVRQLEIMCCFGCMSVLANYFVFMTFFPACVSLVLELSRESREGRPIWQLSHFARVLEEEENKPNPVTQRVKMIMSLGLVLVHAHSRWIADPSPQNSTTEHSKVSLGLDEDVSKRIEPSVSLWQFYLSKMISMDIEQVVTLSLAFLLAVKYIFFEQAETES

CC(C)CCC[C@@H](C)[C@H]1CC[C@@]2(C)C3=C(CC[C@]12C)[C@@]1(C)CC[C@H](O)C(C)(C)[C@@H]1CC3 [24,25-DHL, 24,25-dihydrolanosterol]
HMGCR (TM1-8)-GFP fluorescent intensity, mean: 25.7375 and 55.6471

Source: PMC6277434, “Discovery of a potent HMG-CoA reductase degrader that eliminates statin-induced reductase accumulation and lowers cholesterol” (Nature Communications, 2018)
